Results on 59 compounds are retold here after PubChem BioAssay AID2685 (National Center for Advancing Translational Sciences (NCATS), 2010).

Some of the results follow. The main result of the screen is listed elsewhere. These columns were measured beside it and carry no call. Compounds called inactive in the main read-out are mostly missing here. Words in brackets tell the shape of the fitted curve; partial curves, single points and poor fits give uncertain potencies.

The test can be described thus: qHTS Assay for Lipid Storage Modulators in Drosophila S3 Cells.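 On cell number change: cells counted by Cell Tracker Red CMTPX staining in the red channel.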 To be noted: BODIPY lipid droplet fluorescence, 18-24 h; for cell number change: measured here: cell count max response, cells fed with added oleic acid. The procedure, abridged:
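Drosophila S3 cells loaded with oleic acid (400 uM, as added) and compounds at several concentrations; lipid droplets imaged by 488-nm laser-scanning cytometry, 500–530 nm intensity and object ratio to cell channel. Percent activity normalized to 20 uM Triacsin C.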

Where [1] appears, read: measured here: cell number channel AC50, cells fed with added oleic acid.
[2] abbreviates: measured here: lipid fluorescence (Fed channel) AC50, cells fed with added oleic acid.

One may read the AC50 as the concentration giving half of the maximal activity seen. A high value points to weaker potency. As to `Cc1cc(C)c2nc(NC(=O)c3ccco3)sc2c1`, the cell number change was -33.3%. Besides, under setting [1], the AC50 was 11.6 µM [falling, partial curve, poor fit]. Further, the AC50 under setting [2] is 7.31 µM [falling, partial curve].

`N#CC1=C2SCN(c3ccccc3)CN2C(=O)CC1c1ccccc1Cl` (configuration not stated): the cell number change turned out to be 12.8%. The AC50 under setting [2] is 1.16 µM [falling, partial curve].

As to `CCn1c(SCC(=O)N(C)C2CCS(=O)(=O)C2)nnc1-c1cccs1` (configuration not stated), the cell number change worked out at 17.7%.

`Cc1ccc(S(=O)(=O)N2[C@@H](c3ccccc3)C(C(=O)O)=CC[C@H]2c2ccc(Cl)cc2)cc1`: the cell number change is -25.8%.

`COc1cc(/C=C/C(=O)NC(=O)c2ccccc2O)ccc1O`: the AC50 under setting [2] is 0.146 µM [falling, partial curve, poor fit].

As to `CC(C)(C)NCC1(CO)SC(N)=NC1=O` (configuration not stated), the cell number change is 5.96%. For the same compound, the concentration at half-maximal activity (AC50) under setting [2] was 0.82 µM [rising, full curve, poor fit].

As to `CCc1nc(N2CCC3(CC2)OCCO3)c2nnn(Cc3ccccc3Cl)c2n1`, the cell number change is -11.7%. Moreover, under setting [2], the AC50 is 29.1 µM [falling, single point].

`COc1ccc(C2(C(=O)NCC3CCCO3)CCOCC2)cc1` (configuration not stated): the cell number change is -24.9%. Moreover, under setting [1], the AC50 is 0.146 µM [falling, full curve, poor fit]. Besides, the AC50 under setting [2] was 8.2 µM [falling, single point].

As to `COc1ccc(S(=O)(=O)N2CCOCC2)c2ccccc12`, the cell number change was -9.71%. Besides, the AC50 under setting [2] was 32.6 µM [rising, single point].

Regarding `O=C(COC(=O)c1ccccc1)NCc1ccco1`, the cell number change was 19.1%. In addition, the AC50 under setting [2] was 0.0164 µM [falling, full curve, poor fit].

With `CC(C)COC(=S)Nc1ccccc1`, the AC50 runs as follows: under setting [1], 0.326 µM [falling, partial curve, poor fit]; under setting [2], 6.51 µM [rising, single point].

As to `Cc1ccccc1-n1c(SC2CCOC2=O)nnc1-c1ccncc1` (configuration not stated), the cell number change was -17.1%. Under setting [2], the AC50 was 3.26 µM [falling, partial curve].

For the compound `CCOC(=O)c1c(C)c(-c2ccccc2)n(CC(=O)N2CCN(C)CC2)c1C`, the cell number change was 24.3%. For the same compound, the concentration at half-maximal activity (AC50) under setting [1] was 6.51 µM [rising, partial curve, poor fit].

`Cc1cc(NC(=NC2CC2)c2ccccc2F)n(-c2ccccc2)n1`: the AC50 by setting is: under setting [1], 0.206 µM [rising, full curve, poor fit]; under setting [2], 0.13 µM [rising, full curve, poor fit].

As for `Cc1ccc(C)c(C(=O)CN2Cc3ccccc3C2=O)c1`, the cell number change was 23.9%.

Take `C/C(=C\c1ccccc1)C(=O)N1CCN(c2cccc(C(F)(F)F)c2)CC1`: the cell number change was 30.4%. In addition, under setting [1], the AC50 was 23.1 µM [rising, partial curve]. Under setting [2], the concentration at half-maximal activity (AC50) was 20.6 µM [rising, single point].

Turning to `CCCn1cnc2scc(-c3ccc(OC)cc3)c2c1=O`, the cell number change came out at 9.09%.

With `Cc1c(C)n(C)c2ccc(C(=O)NCCCN3CCCC3)cc12`, the cell number change turned out to be 3.63%. For the same compound, the half-maximal activity concentration (AC50) under setting [2] was 20.6 µM [rising, partial curve, poor fit].

Take `CCCCCCCCNC(CO)(CO)CO`: the cell number change was -50.4%. In addition, the AC50 under setting [1] was 29.1 µM [falling, single point]. Under setting [2], the half-maximal activity concentration (AC50) is 0.731 µM [falling, full curve].

As to `CCN(C(=O)Cn1c(=O)n(Cc2ccccc2)c(=O)c2ccccc21)c1cccc(C)c1`, under setting [1], the AC50 was 2.06 µM [rising, single point].

On to `Cc1ccccc1-c1nc(-c2ccc(NC(=O)c3cccs3)cc2)no1`, for which the cell number change is -9.48%.

For the compound `O=C(Nc1ccccc1)N1CCCC1`, the cell number change is -9.97%.

`CNc1nc(SC)nc(N(C)C#N)n1`: the cell number change amounted to 3.87%. Moreover, the AC50 under setting [1] is 0.92 µM [falling, single point]. Under setting [2], the AC50 was 6.51 µM [falling, partial curve].

`CC1(C)C(=O)N(c2ccccc2Cl)C(=O)c2ccccc21`: the cell number change worked out at 20.4%. Under setting [2], the AC50 was 0.82 µM [falling, partial curve].

Consider `CC(C)C(=O)Nc1nnc(SCc2cccc(F)c2)s1`, for which the cell number change turned out to be 10.8%. Further, the AC50 under setting [1] is 6.51 µM [rising, single point]. The AC50 under setting [2] is 2.06 µM [rising, partial curve].

Turning to `C=CCn1c(SCC(=O)c2ccc(O)c(O)c2)nnc1-c1ccc(C)cc1`, the cell number change is -30.2%. Also, the AC50 under setting [1] is 29.1 µM [falling, single point].

For the compound `CC1=NN(C(=O)COc2ccccc2C)C(O)(c2ccc(Cl)cc2)C1` (configuration not stated), the cell number change is -31.9%. The AC50 under setting [1] was 7.31 µM [falling, partial curve]. The AC50 under setting [2] is 3.66 µM [falling, single point].

Turning to `Cc1[nH]c2ccccc2c1C(=O)C(C)Sc1nnc(C2CC2)o1` (configuration not stated), the cell number change was -4.28%. Besides, under setting [2], the half-maximal activity concentration (AC50) was 10.3 µM [falling, single point].

Take `CC(=O)c1ccc(NC(=O)C(C)OC(=O)c2ccc3c(c2)nc(C)n3-c2ccccc2)cc1` (configuration not stated): the cell number change stood at 32.9%. Also, under setting [1], the AC50 was 6.51 µM [rising, partial curve].

As for `CCOC(=O)C1=C(C)N=c2s/c(=C/c3ccco3)c(=O)n2C1c1cccc(OC)c1` (configuration not stated), the cell number change is -17.7%. Also, the AC50 under setting [2] is 2.06 µM [falling, single point].

On to `O=C(/C=C/c1ccco1)Nc1ccc(C(=O)N2CCOCC2)cc1`, for which the cell number change is -56.9%. Also, under setting [1], the AC50 was 32.6 µM [falling, single point]. In addition, under setting [2], the AC50 was 25.9 µM [falling, single point].

In the case of `CN(C)c1ccc(/C=N/NC(=O)C(O)(c2ccccc2)c2ccccc2)o1`, the cell number change is -142%. The AC50 under setting [1] was 18.4 µM [falling, partial curve]. Moreover, under setting [2], the concentration at half-maximal activity (AC50) is 29.1 µM [falling, partial curve].

In the case of `CC(C)COC(=O)c1cc(-c2ccc(/C=N/n3cnnc3)o2)ccc1Cl`, the cell number change was 52.6%. Moreover, under setting [1], the AC50 is 2.31 µM [rising, full curve].

On to `CCOC(=O)C1(CCOC)CCN(C(C)CCc2ccc(OC)cc2)CC1` (configuration not stated), for which the cell number change came to 0.955%. In addition, under setting [2], the AC50 is 6.51 µM [falling, partial curve].

As for `COc1ccccc1C(=O)Nc1ccc(S(=O)(=O)N2CCC(C)CC2)cc1`, the cell number change was -9.72%.

Turning to `Fc1ccc(-c2csc(N3CCC(c4ccccc4)C3)n2)cc1` (configuration not stated), the AC50 under setting [2] was 6.51 µM [falling, single point].

In the case of `CCOC(=O)CNC(=O)c1c2c(nc3ccccc13)CCCC2`, the cell number change worked out at 33.5%. Besides, the AC50 under setting [1] was 32.6 µM [rising, single point].

For the compound `Cc1ccc(NC(=O)CC2S/C(=N/c3nccs3)N(C)C2=O)c(C)c1` (configuration not stated), the cell number change amounted to 3.73%.

Regarding `CCCCOc1ccc(CC(=O)NCC(=O)O)cc1`, the cell number change is -6.67%.

Consider `CCN(CC)S(=O)(=O)c1ccc(-c2nnc(SC)o2)cc1`, for which the cell number change was 0.762%. In addition, the AC50 under setting [2] is 6.51 µM [falling, single point].

On to `COc1ccc(OCC(=O)Nc2cc(C)c(Cl)cc2OC)c([N+](=O)[O-])c1`, for which the cell number change is -21.1%. Also, the AC50 under setting [2] is 0.731 µM [rising, full curve, poor fit].

`Fc1cccc(CSc2nc3ncc(Cl)cc3[nH]2)c1`: the cell number change turned out to be 16.1%. Further, the AC50 under setting [1] was 0.326 µM [rising, full curve, poor fit]. Under setting [2], the AC50 is 0.116 µM [rising, full curve, poor fit].

As for `Cc1cc(C)n(-c2nc(-c3ccc(Cl)cc3)cs2)n1`, the cell number change was 8.2%. Further, under setting [1], the half-maximal activity concentration (AC50) is 0.231 µM [rising, full curve]. Also, under setting [2], the AC50 was 1.46 µM [rising, partial curve, poor fit].

In the case of `O=C(O)CSc1nnc2c(n1)[nH]c1ccccc12`, the cell number change was -0.136%. The AC50 under setting [2] was 1.46 µM [falling, single point].

Consider `COc1ccc(-n2nc3c(N4CCC(C(=O)NCCc5ccccc5C)CC4)nnc(C)c3c2C)cc1`, for which the cell number change was 9.73%. The concentration at half-maximal activity (AC50) under setting [2] is 11.6 µM [rising, partial curve].

Take `COc1cc(C(=O)NC2CCCc3c2cnn3-c2ccccc2F)cc(OC)c1OC` (configuration not stated): the AC50 under setting [2] is 23.1 µM [falling, partial curve].

Turning to `Cc1ccc(-c2cc(C(=O)N3N=C(C(F)F)CC3(O)C(F)F)c3ccccc3n2)cc1C` (configuration not stated), the cell number change is -65.4%. Also, the AC50 under setting [1] was 18.4 µM [falling, partial curve]. Further, under setting [2], the AC50 was 16.4 µM [falling, partial curve].

For the compound `O=C(O)CCNc1nc(-c2ccccc2)nc2ccccc12`, the cell number change came out at 34.8%. The AC50 under setting [1] is 2.31 µM [rising, single point]. Moreover, the AC50 under setting [2] was 29.1 µM [falling, single point].

Regarding `CN(C)C(CNC(=O)c1ccc(C(=O)c2ccccc2)cc1)c1ccccc1` (configuration not stated), the cell number change is 18.9%. Under setting [2], the AC50 was 8.2 µM [rising, partial curve].

Consider `CCOc1ccc(N2CC(C(=O)Nc3ccc(S(=O)(=O)N4CCOCC4)cc3)CC2=O)cc1` (configuration not stated), for which the cell number change was 41.5%. Moreover, the AC50 under setting [1] is 29.1 µM [rising, single point]. Under setting [2], the AC50 is 6.51 µM [rising, single point].

In the case of `COc1ccc(CN(Cc2ccccn2)S(=O)(=O)c2ccc(-n3cnnn3)c(OC)c2)cc1`, the cell number change amounted to 47.5%. For the same compound, the AC50 under setting [1] was 29.1 µM [rising, single point]. Moreover, the concentration at half-maximal activity (AC50) under setting [2] was 11.6 µM [rising, partial curve].

Consider `CC1Sc2ccc(S(=O)(=O)CCC(=O)NC(C)c3ccccc3)cc2NC1=O` (configuration not stated), for which the cell number change is -3.36%. Further, the AC50 under setting [2] is 2.31 µM [rising, partial curve].

`COC(=O)c1[nH]c2cccc(OC)c2c1NC(=O)CCN1CCC(C)CC1`: the cell number change is -20.8%. Moreover, the AC50 under setting [2] was 0.411 µM [rising, full curve, poor fit].

With `COc1ccc(COCC(O)CN2CCOCC2)cc1OC` (configuration not stated), the cell number change was determined as 32.3%.

On to `CN(CCCNC(=O)CCC(=O)N1CCOc2ccccc21)Cc1ccccc1`, for which the cell number change was 9.22%.

For `CC(C)(C)c1ccc(NC(=O)COC(=O)c2ccc3ncsc3c2)cc1`, the cell number change was 0.987%. Besides, the AC50 under setting [2] is 6.51 µM [falling, single point].

`COc1cccc(CNC(=O)CN(c2cc(C)cc(C)c2)S(=O)(=O)c2c(C)noc2C)c1`: the cell number change is 15.4%. For the same compound, under setting [2], the AC50 is 1.64 µM [rising, partial curve, poor fit].

`CCN1CCN(c2ccc(S(=O)(=O)N3CCCCC3)cc2NC(=O)CC(NC(C)=O)c2ccccc2)CC1` (configuration not stated): the cell number change is 2.94%.

On to `Cc1cc(C(=O)O)ccc1-c1ccc(/C=N/n2cnnc2)o1`, for which the cell number change worked out at 21.3%. Under setting [2], the AC50 was 13 µM [rising, partial curve].
